Data on 49 compounds can be found in PubChem BioAssay AID1794844 (National Center for Advancing Translational Sciences (NCATS), 2023).

Protein sequences, listed by entry. Tags and fused reporters are not part of them. Lines headed by an entry give the natural chain unless they say otherwise; changes in a name come on top.
UniProt C7C422: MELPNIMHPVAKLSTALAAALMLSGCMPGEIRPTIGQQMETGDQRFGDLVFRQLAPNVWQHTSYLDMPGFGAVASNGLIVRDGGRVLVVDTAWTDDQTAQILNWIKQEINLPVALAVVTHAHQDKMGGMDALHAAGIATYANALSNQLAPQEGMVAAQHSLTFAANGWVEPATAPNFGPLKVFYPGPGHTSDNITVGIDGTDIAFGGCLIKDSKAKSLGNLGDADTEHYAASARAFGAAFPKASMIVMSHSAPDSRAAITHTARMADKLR

Out of some 2,800 compounds screened, fewer than 10 were called active. Roughly 7% stayed inconclusive and do not appear here. Calls follow the shape of the dose curve; as a rule, active = well fitted inhibition curve with a large enough effect; inconclusive = small, poorly fitted or top-dose-only effect; inactive = no such curve, though single readings can be large or run the other way. This is one part of the list.

For this experiment, the target named is Metallo-beta-lactamase type 2 (Klebsiella pneumoniae) (UniProt C7C422). As to the kind of experiment: qHTS to identify inhibitors of the New Delhi Metallo-beta-lactamase (NDM): Nitrocefin screen against the machine-based learning selections. Also: % of control where 0% means no effect. Particulars: NDM-1 enzyme, nitrocefin hydrolysis, absorbance 485 nm; activity, negative = inhibition: at the top concentration. The procedure, abridged: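 Hydrolysis by 2 nM NDM-1 was followed by absorbance after >30 min compound preincubation in HEPES pH 7.0 buffer with 1 uM Zn2SO4. For nitrocefin (16.7 uM, 15 min, 485 nm) and meropenem (50 uM, 30 min, 300 nm), each substrate ran on separate plates.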
(In general: In qHTS, concentration-response curves come from the screen itself.)
On to `O=C(O)c1cc(Br)cc(S(=O)(=O)NC2CCCCC2)c1`, for which the “activity, negative = inhibition” value is inactive: -5.88%.
The value for `O=C1CO[C@H]2CN(c3nccc(C(F)(F)F)n3)C[C@H]2N1Cc1ccc(F)cc1` was inactive: 1.03% [at 57.5 µM].
The value for `Cc1cccn2cc(C(=O)N3CCC4(CCCN(CC5CCC5)C4=O)C3)nc12` (centres undefined) was inactive: 1.56%; that for `NC(=O)c1cccc(-c2cc3c(cn2)CN(Cc2ccccc2)CCN3)c1` was inactive: -4.54% [at 57.5 µM]; that for `O=S(=O)(NC[C@H]1OC[C@@H](NCc2ccccc2F)[C@@H]1O)c1ccccc1` was inactive: 2.65% [at 57.5 µM].
The value for `NC(=O)Cc1c[nH]c2ncc(-c3cccc(CO)c3)cc12` was inactive: 1.52% [at 76.7 µM]; that for `CN1C(=O)[C@@H]2C[C@@H](O)CN2C2(CN(Cc3cccc(F)c3)C2)C1=O` was inactive: 8.98% [at 57.5 µM].
Turning to `COCCNC(=O)[C@@H]1CCC[C@@H](NC(=O)c2cc(C)n(C)n2)CN(C)C(=O)C1`, the “activity, negative = inhibition” value was inactive: -12% [at 57.5 µM].
With `NC(=O)c1cccnc1N1CCC2(CC1)CC(C(=O)O)N(C(=O)C1CC1)C2` (centres undefined), the “activity, negative = inhibition” value was inactive: 5.46%.
The value for `Fc1ccc(-c2cnc([C@@H]3COCCN3Cc3cnc4ccccc4c3)[nH]2)cc1` was inactive: 4.55% [at 57.5 µM]; that for `COc1ccc(S(=O)(=O)N2CCC(c3noc(-c4ccncc4)n3)C2)cc1` (centres undefined) was inactive: -5.77%; that for `Cc1[nH]c2ccc(C(=O)N3CC[C@@](C)(O)[C@@H](O)C3)cc2c1C` was inactive: -0.0594%.
On to `CCN(CC)Cc1cnc2c(C(=O)N(C)Cc3cc(C)cc(C)n3)cnn2c1`, for which the “activity, negative = inhibition” value is inactive: 1.08%.
In the case of `CC(C)C(=O)N1CCC(N2C(=O)C3(CCCC3)C2c2ccccc2)CC1` (centres undefined), the “activity, negative = inhibition” value was inactive: -6.25%.
The value for `Cc1ccc(C(=O)NC2CCN(c3ccc(F)cc3)C2=O)s1` (centres undefined) was inactive: -2.33%.
As to `C[S+](=O)([O-])Nc1cccc(Nc2cnc3ccc(-c4ccccc4)nn23)c1`, the “activity, negative = inhibition” value is inactive: -3.67% [at 57.5 µM].
The value for `Cn1cncc1C(=O)N1CC(F)(F)C[C@H]1c1nc(C2CC2)no1` was inactive: -3.91%; that for `COc1ccc(-c2noc([C@@H]3C[C@H](NCc4ccc(N(C)C)cc4)CN3C)n2)cc1` was inactive: 13.4% [at 57.5 µM]; that for `CC1=C[C@@H](CNC(=O)COc2ccccc2)[C@H](C(C)C)C[C@H]1CC(=O)N1CCN(C)CC1` was inactive: 0.523%.
On to `O=c1[nH]nc(CNCC2(O)CCCNC2)c2ccccc12` (centres undefined), for which the “activity, negative = inhibition” value is inactive: -13.4%.
For `Cc1nnc(-c2cc(N3CCN(c4ccccn4)CC3)ccn2)n1C1CCCCC1`, the “activity, negative = inhibition” value was inactive: -1.57% [at 57.5 µM].
As to `O=C(NCC1CN(Cc2cccnc2)CC12CN(c1ccccc1)C2)Nc1ccccc1` (centres undefined), the “activity, negative = inhibition” value was inactive: -3.01% [at 57.5 µM].
Take `O=C1CCC2(CCCO2)CCN1Cc1ccc(C(F)(F)F)cc1` (centres undefined): the “activity, negative = inhibition” value is inactive: -0.424%.
The value for `O=C(NC[C@H]1O[C@@H](CO)[C@@H](O)[C@H]1N1CCCC1)c1ccc(F)c(Cl)c1` was inactive: -2.6% [at 57.5 µM].
The value for `Cc1nn(-c2ccc(C(C)(C)C)cc2)c(C)c1[C@@H]1C=C[C@@H](NC(=O)NCc2ccccc2)C1` was inactive: 0.194% [at 57.5 µM]; that for `COC[C@]1(O)CCN(S(=O)(=O)c2cccc(C(=O)O)c2)CC1(C)C` was inactive: 0.612%.
The value for `COc1ccccc1N1CCN(C(=O)C[C@@H]2O[C@H](CNS(=O)(=O)c3ccc(Cl)cc3)[C@@H](O)[C@H]2O)CC1` was inactive: -0.156%; that for `Cc1ccccc1-c1cnc2[nH]cc(CC(=O)Nc3ccccn3)c2c1` was inactive: 6.11% [at 57.5 µM].
Turning to `N[C@@H]1CC[C@H](C(=O)Nc2ccc(CC(=O)N3CCCC3)cc2)C1`, the “activity, negative = inhibition” value was inactive: -0.91%.
Consider `c1cncc(CNc2cc(-c3cnc4ccccc4n3)c3cc[nH]c3n2)c1`, for which the “activity, negative = inhibition” value was inactive: 11.1%.
As for `COc1ccccc1-c1[nH]nc2ncc(C(=O)Nc3ccc4[nH]ccc4c3)nc12`, the “activity, negative = inhibition” value was inactive: 16.8% [at 57.5 µM].
The value for `CCn1c(CO)nnc1C1CC(NC(=O)Cc2ccc(-n3cnnn3)cc2)C1` (centres undefined) was inactive: 0.346%; that for `OCCC1CN(CCOc2ccc(F)cc2)CCN1CC1CCCCC1` (centres undefined) was inactive: 2.55%; that for `O=C(Nc1ccccc1)O[C@@H]1CO[C@H]2[C@@H]1OC[C@@H]2n1nnnc1Sc1ccccc1` was inactive: -5.27% [at 57.5 µM].
The value for `N#Cc1cccc(NC(=O)N[C@H]2CO[C@H]3[C@@H]2OC[C@@H]3Nc2nccc(C3CCCC3)n2)c1` was inactive: -0.927% [at 57.5 µM].
The value for `Cc1noc([C@@H](C)NC(=O)C2CCCC2)c1C(=O)O` was inactive: -7.57% [at 76.7 µM].
Regarding `CC(CO)NS(=O)(=O)c1cccc(C(=O)NCCc2ncnn2C)c1` (centres undefined), the “activity, negative = inhibition” value is inactive: 1.2%.
The value for `CC(C)Cc1ccc(S(=O)(=O)N2CCCC(Cn3cnc4cccnc43)C2)cc1` (centres undefined) was inactive: 351%; that for `Cc1nnc(-c2cc(N3CCN(c4ccccn4)CC3)ccn2)n1-c1ccccc1` was inactive: 4.93% [at 57.5 µM].
Turning to `Cn1ccnc1CN1C[C@@H]2C[C@H]1C(=O)N(CC1CC1)c1ccccc1O2`, the “activity, negative = inhibition” value was inactive: 1.47% [at 57.5 µM].
For the compound `COCCN1C(=O)[C@@H]2C[C@@H](CN2C)Oc2ccccc21`, the “activity, negative = inhibition” value is inactive: -12.8% [at 76.7 µM].
The value for `CCN(CC)C(=O)[C@@H]1CCC[C@@H](NS(=O)(=O)c2ccccc2)CN(C)C(=O)C1` was inactive: 0.626% [at 57.5 µM]; that for `Cc1cc(F)ccc1-c1[nH]nc2ncc(-c3ccsc3)nc12` was inactive: 0.956% [at 57.5 µM]; that for `CC(C)NC(=O)C[C@@H]1C[C@H]2O[C@H](CNCc3ccccc3Cl)[C@@H](O)[C@H]2O1` was inactive: -0.815% [at 57.5 µM].
The value for `Cc1nn(-c2ccccc2)c(C)c1S(=O)(=O)N[C@@H]1[C@@H](N)[C@H]2CCO[C@H]21` was inactive: 0.344%; that for `COc1cccc(S(=O)(=O)N2C[C@@H](C)[C@](O)(C3CCC3)C2)c1` was inactive: -1.1%.
The value for `COc1ccc(NC(=O)N2CC[C@H]3COC(=O)N3c3cc(C)ccc3C2)cc1` was inactive: -5.74% [at 57.5 µM]; that for `O=c1c2nc(-c3cccc(O)c3)ccc2ncn1-c1ccccc1` was inactive: -5.8% [at 57.5 µM]; that for `CCOC(=O)N1CCN(C(C(=O)O)c2ccc(OC)nc2OC)CC1` (centres undefined) was inactive: -25.6%.
